Paper doi:10.1101/2024.05.10.593590

Columns and labels:
U(702-745) (human) = target: T1, U(702-745) (human) (UniProt Q00839); experiment: fluorescence anisotropy; details: K+, unsaturated curve; residues 702-745
T1 sequence (looked up): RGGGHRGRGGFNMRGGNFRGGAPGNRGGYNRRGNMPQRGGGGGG

U(702-761) (human) = target: T2, U(702-761) (human) (UniProt Q00839); experiment: fluorescence anisotropy; details: K+, unsaturated curve; residues 702-761
T2 sequence (looked up): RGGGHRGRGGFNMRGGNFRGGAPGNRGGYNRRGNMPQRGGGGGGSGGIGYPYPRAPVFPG

[1] = target: T3, RGG1 (minimal first RGG/RG motif) (human) (UniProt Q00839); experiment: EMSA; details: higher-order complex only
T3 sequence (looked up, limits assumed): T1 sequence (looked up)

[2] = target: T3, RGG1 (minimal first RGG/RG motif) (human); experiment: fluorescence anisotropy; details: for Kd: described as significantly weaker

**Q.** With “GAAGCUCACGCCGCUGGCAGCAAACCCGAUCCAGUUCCACUCGCCUCCGAGCGCGCUCCCGGUGCGCGCGCGCGCCCCCGCGUGACCCCCCCUUCCCUUCCCUUCCCUUCCCUCCCCUCCCUC [Antisense Syncrip]” as the sequence, how does the Kd (U(702-745) (human)) read?
**A.** > 26 µM

**Q.** And the Kd (U(702-761) (human))?
**A.** > 21 µM

**Q.** Which results are given for “GAGCCACCCCACCCAACCCAACCCAACCCAACCGGGGGUCACGCGGGGGCGCGCGCGCGCACCGGGAGCGCGCUCGGAGGCGAGUGGAACUGGAUCGGGUUUGCUGCCAGCGGCGUGAGCUUC [Syncrip GtoC]”?
**A.** binding result [1]: binds more weakly; Kd ([2]; K+): > 10 µM

**Q.** With “GCUAUACAUAUAUUGACCCAAUAAUUUGAUCAACGGAACAAGUUACCCUAGGGAUAACAGCGCAAUCCUAUUCUAGAGUCCAUAUUGACAAUAGGGUUUACGACCUCGAUGUUGGAUCAGGACAUCCUAAUGGUGUAGC [MTRNR2L6]” as the sequence, how does the Kd (U(702-745) (human)) read?
**A.** > 13 µM

**Q.** What about the Kd (U(702-761) (human)) of the same sequence?
**A.** > 11 µM

**Q.** Which results are given for “GGAGCUGCGGUGUGGAAGGAGUGGUCGGGUUGCGCAGCG [SC1]”?
**A.** binding result ([2]; K+, first transition, value only in figure): binds; binding signal (fold weaker than K+) ([2]; Li+ instead of K+, text says FMRP peptide, Fig 4 legend says RGG1): > 300

**Q.** For “GGCUACACCAUUAGGAUGUCCUGAUCCAACAUCGAGGUCGUAAACCCUAUUGUCAAUAUGGACUCUAGAAUAGGAUUGCGCUGUUAUCCCUAGGGUAACUUGUUCCGUUGAUCAAAUUAUUGGGUCAAUAUAUGUAUAG [Antisense MTRNR2L6]”, which Kd (U(702-745) (human)) is on record?
**A.** > 13 µM

**Q.** And the Kd (U(702-761) (human))?
**A.** > 9 µM

**Q.** Which results are given for “GGGGGUCACGCGGGGGCGCGCGCGCGCACCGGGAGCGCGCUCGGAGGCGAGUGGAACUGGAUCGGGUUUGCUGCCAGCGGCGUGAGCUUC [Syncrip ΔG-quad]”?
**A.** binding result [1]: binds more weakly; Kd ([2]; K+): > 10 µM

Where a protein sequence is shown, tags need not be part of it. For part of these data: The exact form of at least one protein or probe is not confirmed. For part of these data: The comparison behind a weaker result is the experiment's own reference, which may not be listed here. For part of these data: At least one verdict was read from the data and is not stated in words by the source. For part of these data: The direction of at least one scale is not stated here.
